The values below come from PubChem BioAssay AID2685 (National Center for Advancing Translational Sciences (NCATS), 2010).

SMILES strings stand for the structures. The list shows a part of the results. Shown are side measurements of this screen, not its main read-out; they come without a call. Compounds called inactive in the main read-out are mostly missing here. Potencies come from curve fits of mixed quality, noted in brackets.

The nature of the assay: qHTS Assay for Lipid Storage Modulators in Drosophila S3 Cells.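 As to cell number change: cells counted by Cell Tracker Red CMTPX staining in the red channel.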 The note with it: BODIPY lipid droplet fluorescence, 18-24 h; for cell number change: measured here: cell count max response, cells fed with added oleic acid. The procedure, abridged:
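Laser-scanning cytometry quantifies lipid droplet accumulation (500–530 nm total intensity; droplet/cell object ratio) in oleic acid-fed (400 uM added) Drosophila S3 cells treated with a concentration series. 20 uM Triacsin C defined 100% inhibition.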

Where [1] appears, read: measured here: lipid fluorescence (Fed channel) AC50, cells fed with added oleic acid.
The mark [2] stands for this setting: measured here: cell number channel AC50, cells fed with added oleic acid.

`Cc1nnc(NC(=O)CCCOc2ccccc2)s1`: the cell number change was determined as 12.3%. Further, the AC50 under setting [1] is 29100 nM [rising, single point].
For the compound `COc1ccc(NC(=O)CN(C)S(=O)(=O)c2ccc(Br)s2)cc1`, the cell number change was 31.1%. For the same compound, the AC50 under setting [2] was 32600 nM [rising, single point]. Besides, the AC50 under setting [1] was 231 nM [falling, full curve, poor fit].
`COC(=O)C(Cc1ccccc1)OS(N)(=O)=O` (centres undefined): the cell number change is 21%. Besides, the AC50 under setting [1] is 1160 nM [rising, full curve].
On to `O=C(CSc1nc2ccccc2c(=O)n1-c1ccccc1)NC(=O)CN1CCCC1=O`, for which the cell number change was 1.71%. The half-maximal activity concentration (AC50) under setting [1] was 6510 nM [rising, single point].
Turning to `Cc1ccc(C)c(S(=O)(=O)N2CCCCC2CCNC(=O)C(=O)NC2CCCC2)c1` (centres undefined), the cell number change was -14.9%. Also, the AC50 under setting [1] is 2590 nM [rising, single point].
Take `CC(=O)Nc1ccc(S(=O)(=O)NCCS(=O)(=O)N2CCN(c3ccccc3F)CC2)cc1`: the cell number change is -6.92%.
Take `Cc1cc(-c2ccccc2)nc(N(C)NC(=O)c2cccc(C(F)(F)F)c2)c1S(C)(=O)=O`: the AC50 under setting [2] was 1840 nM [rising, partial curve] and the AC50 under setting [1] was 2060 nM [rising, partial curve].
With `COc1ccc(/C=C/C(=O)c2ccc(Cl)s2)cc1O`, the cell number change turned out to be 10.1%. For the same compound, the AC50 under setting [1] is 146 nM [falling, full curve].
Consider `COc1ccccc1Nc1nc(-c2ccccc2O)nc2ccccc12`, for which the cell number change amounted to 9.54%. For the same compound, under setting [1], the AC50 is 46.1 nM [rising, partial curve, poor fit].
For `COc1ccc(Cl)cc1NC(=O)CN(C)C(=O)c1cc2c(s1)CCCC2`, under setting [2], the AC50 is 6510 nM [rising, single point].
With `COc1ccc2nc(NC(=O)c3cc(S(=O)(=O)N4CCOCC4)ccc3C)sc2c1`, the cell number change is 25.5%. Also, the AC50 under setting [2] was 4110 nM [rising, full curve, poor fit].
On to `CC(=O)c1ccc(N=Nc2ccc(C)cc2)cc1`, for which the cell number change is -77.8%. Further, under setting [2], the AC50 was 1160 nM [falling, partial curve]. Also, the AC50 under setting [1] is 29100 nM [falling, single point].
As to `COc1ccc(NC(=O)c2ccc(NC(=O)CCS(=O)(=O)c3cccs3)cc2)cc1`, the cell number change worked out at 23.9%. The AC50 under setting [1] was 18400 nM [falling, partial curve].
In the case of `Cc1cccc(C)c1NC(=O)CNC(=O)c1ccc(COc2ccccc2)o1`, the cell number change is -20.9%. Under setting [2], the AC50 is 820 nM [falling, full curve, poor fit]. For the same compound, the half-maximal activity concentration (AC50) under setting [1] was 651 nM [falling, full curve, poor fit].
Consider `COc1ccccc1NC(=O)CSCc1ccc([N+](=O)[O-])cc1`, for which the cell number change is -18.2%. For the same compound, the AC50 under setting [1] is 5170 nM [falling, full curve, poor fit].
Consider `Cc1cc(S(=O)(=O)NCc2ccccc2)ccc1OCC(=O)NCC1CCCO1` (centres undefined), for which the cell number change was -2.87%. The AC50 under setting [2] was 731 nM [falling, full curve, poor fit]. Also, under setting [1], the AC50 was 23100 nM [falling, partial curve].
